Experimental data taken from publication PMC10112802.
Results are given in words; binding and its absence hold for the method and conditions named. In cells and extracts the contact can be indirect. Some results given as binding are weak or reduced against the parent protein; the word gives no strength. For some assays here: Sequences can lack the tags named with a protein.

Chains of the proteins cited; added tags and fusions are not shown.
UniProt Q86WV6: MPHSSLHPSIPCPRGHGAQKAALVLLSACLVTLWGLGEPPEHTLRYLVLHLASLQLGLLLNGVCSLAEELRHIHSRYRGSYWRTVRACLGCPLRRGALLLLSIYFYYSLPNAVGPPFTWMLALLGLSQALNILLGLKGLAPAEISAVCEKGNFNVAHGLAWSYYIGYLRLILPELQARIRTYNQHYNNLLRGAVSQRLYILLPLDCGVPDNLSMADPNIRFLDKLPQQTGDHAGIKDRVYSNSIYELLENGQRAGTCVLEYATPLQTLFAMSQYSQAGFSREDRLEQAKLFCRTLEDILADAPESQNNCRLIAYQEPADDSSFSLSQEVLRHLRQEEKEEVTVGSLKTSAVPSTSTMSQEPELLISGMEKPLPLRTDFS
UniProt Q92793: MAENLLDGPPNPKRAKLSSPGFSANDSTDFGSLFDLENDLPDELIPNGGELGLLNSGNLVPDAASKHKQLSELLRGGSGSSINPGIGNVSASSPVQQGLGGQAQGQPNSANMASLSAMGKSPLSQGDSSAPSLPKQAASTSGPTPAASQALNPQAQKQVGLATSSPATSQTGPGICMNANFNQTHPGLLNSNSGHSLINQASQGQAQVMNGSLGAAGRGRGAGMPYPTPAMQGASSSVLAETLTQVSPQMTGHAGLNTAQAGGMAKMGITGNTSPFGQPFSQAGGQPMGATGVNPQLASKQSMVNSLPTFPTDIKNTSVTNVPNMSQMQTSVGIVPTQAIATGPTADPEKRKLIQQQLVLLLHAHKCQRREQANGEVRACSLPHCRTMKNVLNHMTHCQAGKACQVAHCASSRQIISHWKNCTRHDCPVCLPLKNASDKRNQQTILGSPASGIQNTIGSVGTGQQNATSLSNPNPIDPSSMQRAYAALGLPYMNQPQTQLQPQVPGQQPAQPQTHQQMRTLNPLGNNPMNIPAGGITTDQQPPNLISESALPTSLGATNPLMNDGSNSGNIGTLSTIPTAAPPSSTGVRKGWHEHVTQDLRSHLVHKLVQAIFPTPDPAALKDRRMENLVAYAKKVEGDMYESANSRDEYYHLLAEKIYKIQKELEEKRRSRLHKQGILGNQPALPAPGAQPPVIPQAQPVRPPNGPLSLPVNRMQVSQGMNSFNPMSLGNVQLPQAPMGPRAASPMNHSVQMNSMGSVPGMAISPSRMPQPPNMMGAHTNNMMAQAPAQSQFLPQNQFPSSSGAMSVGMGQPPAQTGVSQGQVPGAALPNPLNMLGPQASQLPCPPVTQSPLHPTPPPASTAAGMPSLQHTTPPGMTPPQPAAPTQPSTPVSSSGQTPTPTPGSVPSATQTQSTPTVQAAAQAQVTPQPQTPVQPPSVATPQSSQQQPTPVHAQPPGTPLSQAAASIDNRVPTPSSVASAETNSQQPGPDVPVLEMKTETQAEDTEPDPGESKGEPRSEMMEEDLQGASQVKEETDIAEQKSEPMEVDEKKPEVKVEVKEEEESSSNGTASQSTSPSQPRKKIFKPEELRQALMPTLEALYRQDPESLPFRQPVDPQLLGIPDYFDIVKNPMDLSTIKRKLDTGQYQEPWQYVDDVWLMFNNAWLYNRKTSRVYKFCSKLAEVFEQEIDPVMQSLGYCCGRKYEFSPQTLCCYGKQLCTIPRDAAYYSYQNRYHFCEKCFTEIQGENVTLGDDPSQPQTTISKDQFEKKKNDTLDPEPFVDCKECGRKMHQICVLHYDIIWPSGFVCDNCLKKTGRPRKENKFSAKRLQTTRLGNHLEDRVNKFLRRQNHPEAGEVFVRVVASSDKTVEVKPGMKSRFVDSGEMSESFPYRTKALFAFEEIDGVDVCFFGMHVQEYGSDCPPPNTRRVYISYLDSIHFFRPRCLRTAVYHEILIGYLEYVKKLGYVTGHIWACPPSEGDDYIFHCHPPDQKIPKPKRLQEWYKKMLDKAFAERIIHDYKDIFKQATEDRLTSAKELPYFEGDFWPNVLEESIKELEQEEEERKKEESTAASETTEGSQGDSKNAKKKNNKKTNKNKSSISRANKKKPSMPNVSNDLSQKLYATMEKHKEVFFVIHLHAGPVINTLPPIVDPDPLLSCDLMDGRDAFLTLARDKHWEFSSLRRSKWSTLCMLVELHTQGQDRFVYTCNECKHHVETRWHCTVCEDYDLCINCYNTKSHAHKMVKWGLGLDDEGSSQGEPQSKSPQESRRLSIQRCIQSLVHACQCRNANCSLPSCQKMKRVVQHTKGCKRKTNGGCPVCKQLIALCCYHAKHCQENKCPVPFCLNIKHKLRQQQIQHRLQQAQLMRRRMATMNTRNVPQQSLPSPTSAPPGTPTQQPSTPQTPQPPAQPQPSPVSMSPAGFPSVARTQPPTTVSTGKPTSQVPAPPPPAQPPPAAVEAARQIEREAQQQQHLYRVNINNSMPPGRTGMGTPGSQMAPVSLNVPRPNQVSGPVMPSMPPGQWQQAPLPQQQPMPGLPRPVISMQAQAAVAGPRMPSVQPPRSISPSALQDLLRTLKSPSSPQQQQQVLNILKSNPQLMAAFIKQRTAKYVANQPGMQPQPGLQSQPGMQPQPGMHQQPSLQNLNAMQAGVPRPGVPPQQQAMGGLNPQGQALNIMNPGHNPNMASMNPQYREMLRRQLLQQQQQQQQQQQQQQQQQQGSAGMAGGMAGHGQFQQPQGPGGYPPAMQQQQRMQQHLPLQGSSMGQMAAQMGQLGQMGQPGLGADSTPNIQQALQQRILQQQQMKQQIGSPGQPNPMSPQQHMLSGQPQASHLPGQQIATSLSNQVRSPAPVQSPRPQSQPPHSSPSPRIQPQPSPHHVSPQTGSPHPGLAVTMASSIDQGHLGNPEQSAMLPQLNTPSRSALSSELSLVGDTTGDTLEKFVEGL
UniProt Q09472: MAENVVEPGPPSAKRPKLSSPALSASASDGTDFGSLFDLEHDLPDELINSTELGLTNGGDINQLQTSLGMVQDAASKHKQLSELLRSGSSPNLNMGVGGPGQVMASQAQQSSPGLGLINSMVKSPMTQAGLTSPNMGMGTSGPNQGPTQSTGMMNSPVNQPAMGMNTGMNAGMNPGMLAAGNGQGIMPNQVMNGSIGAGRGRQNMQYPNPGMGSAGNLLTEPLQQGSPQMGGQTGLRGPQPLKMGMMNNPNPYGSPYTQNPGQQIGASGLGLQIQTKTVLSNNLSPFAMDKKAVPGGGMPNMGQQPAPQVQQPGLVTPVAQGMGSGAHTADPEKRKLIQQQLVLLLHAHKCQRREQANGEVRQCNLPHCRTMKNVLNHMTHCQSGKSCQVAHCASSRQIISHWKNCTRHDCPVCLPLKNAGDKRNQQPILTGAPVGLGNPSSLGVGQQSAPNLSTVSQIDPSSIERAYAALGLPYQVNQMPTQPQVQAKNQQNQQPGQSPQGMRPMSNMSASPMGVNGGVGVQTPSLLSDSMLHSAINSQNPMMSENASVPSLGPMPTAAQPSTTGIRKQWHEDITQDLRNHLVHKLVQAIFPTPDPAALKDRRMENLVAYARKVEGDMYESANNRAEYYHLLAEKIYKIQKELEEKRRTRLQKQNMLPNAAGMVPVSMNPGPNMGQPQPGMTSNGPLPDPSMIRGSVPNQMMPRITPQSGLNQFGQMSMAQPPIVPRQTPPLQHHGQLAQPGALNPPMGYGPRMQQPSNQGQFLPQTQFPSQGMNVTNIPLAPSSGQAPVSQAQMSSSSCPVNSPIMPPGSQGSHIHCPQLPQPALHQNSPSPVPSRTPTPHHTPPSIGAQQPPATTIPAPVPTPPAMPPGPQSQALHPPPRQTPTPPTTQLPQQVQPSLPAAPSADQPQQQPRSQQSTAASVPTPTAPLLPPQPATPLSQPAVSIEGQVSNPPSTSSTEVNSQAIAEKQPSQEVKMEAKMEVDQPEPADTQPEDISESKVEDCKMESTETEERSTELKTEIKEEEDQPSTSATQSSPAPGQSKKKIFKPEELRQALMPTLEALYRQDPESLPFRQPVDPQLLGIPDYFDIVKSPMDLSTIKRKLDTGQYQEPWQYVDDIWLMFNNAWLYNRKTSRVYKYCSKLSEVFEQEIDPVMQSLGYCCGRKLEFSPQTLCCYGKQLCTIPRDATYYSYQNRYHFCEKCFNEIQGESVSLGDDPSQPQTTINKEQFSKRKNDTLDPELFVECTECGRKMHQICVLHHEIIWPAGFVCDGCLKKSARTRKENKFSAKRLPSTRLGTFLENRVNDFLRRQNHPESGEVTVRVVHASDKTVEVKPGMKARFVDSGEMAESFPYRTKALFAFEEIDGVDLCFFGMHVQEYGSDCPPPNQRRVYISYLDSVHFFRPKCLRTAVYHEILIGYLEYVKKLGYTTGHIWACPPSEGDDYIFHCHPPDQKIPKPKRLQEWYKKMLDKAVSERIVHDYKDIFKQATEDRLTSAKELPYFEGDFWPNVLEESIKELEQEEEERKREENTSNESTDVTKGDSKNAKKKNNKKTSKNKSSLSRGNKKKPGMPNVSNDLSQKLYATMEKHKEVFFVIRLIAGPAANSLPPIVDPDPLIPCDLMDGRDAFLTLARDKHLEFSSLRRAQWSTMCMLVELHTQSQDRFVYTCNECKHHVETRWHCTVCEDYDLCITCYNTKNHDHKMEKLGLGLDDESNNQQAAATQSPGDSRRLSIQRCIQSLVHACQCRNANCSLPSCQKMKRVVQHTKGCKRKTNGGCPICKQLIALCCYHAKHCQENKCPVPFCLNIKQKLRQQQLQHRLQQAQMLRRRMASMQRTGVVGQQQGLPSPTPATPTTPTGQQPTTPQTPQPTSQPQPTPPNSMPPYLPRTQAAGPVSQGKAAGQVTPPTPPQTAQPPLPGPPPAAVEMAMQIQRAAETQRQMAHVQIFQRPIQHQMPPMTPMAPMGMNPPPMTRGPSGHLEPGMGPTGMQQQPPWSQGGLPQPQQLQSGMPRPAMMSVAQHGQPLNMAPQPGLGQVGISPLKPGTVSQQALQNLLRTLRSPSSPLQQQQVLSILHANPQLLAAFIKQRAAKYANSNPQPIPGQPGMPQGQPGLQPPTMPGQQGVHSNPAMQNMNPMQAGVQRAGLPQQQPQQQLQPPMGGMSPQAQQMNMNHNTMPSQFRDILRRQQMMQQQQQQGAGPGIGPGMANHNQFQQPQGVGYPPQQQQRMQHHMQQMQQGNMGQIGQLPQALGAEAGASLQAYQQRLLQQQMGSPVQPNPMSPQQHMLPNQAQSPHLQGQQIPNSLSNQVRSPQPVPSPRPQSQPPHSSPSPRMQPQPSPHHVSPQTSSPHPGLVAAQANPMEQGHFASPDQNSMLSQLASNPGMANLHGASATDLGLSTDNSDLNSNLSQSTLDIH

T1: Myc-tagged IRF3 (IRF3-Myc) (UniProt Q14653)
T1 sequence: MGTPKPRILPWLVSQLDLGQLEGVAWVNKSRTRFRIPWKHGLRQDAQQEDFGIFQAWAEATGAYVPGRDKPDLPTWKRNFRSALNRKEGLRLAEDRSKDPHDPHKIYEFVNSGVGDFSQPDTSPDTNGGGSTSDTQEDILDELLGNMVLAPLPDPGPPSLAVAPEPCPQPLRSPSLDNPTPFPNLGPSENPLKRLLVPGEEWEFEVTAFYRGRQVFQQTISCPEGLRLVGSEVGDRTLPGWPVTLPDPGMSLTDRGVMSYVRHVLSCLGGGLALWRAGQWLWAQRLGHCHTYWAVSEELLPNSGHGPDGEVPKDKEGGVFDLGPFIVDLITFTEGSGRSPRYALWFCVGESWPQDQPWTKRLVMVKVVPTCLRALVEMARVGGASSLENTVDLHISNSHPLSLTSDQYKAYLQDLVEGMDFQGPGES


Assays:
[1] = biological target: T1, Myc-tagged IRF3 (IRF3-Myc); assay: co-IP; HEK293T cells with IRF3-Myc and wild type or mutant vIRF1-Flag; anti-Myc immunoprecipitation, blot with anti-Flag; bands quantified, normalised to IRF3-Myc
STING-Myc = STING-Myc (UniProt Q86WV6); assay: co-IP; HEK293T cells with STING-Myc and wild type or mutant vIRF1-Flag; anti-Myc immunoprecipitation, blot with anti-Flag; bands quantified, normalised to STING-Myc
HA-tagged CBP (CBP-HA) [2] = biological target: HA-tagged CBP (CBP-HA) (UniProt Q92793); assay: co-IP; THP-1 cells with IRF3-Myc, lentiviral vIRF1-Flag or pHAGE, p300-HA or CBP-HA; UBCS039 80 μM or DMSO 24 h; anti-HA immunoprecipitation, blot with anti-Myc
HA-tagged p300 (p300-HA) [3] = biological target: HA-tagged p300 (p300-HA) (UniProt Q09472); assay: as above
HA-tagged CBP (CBP-HA) [4] = biological target: HA-tagged CBP (CBP-HA) (UniProt Q92793); assay: co-IP; HEK293T cells with IRF3-Myc, p300-HA or CBP-HA, and wild type or mutant vIRF1-Flag or pHAGE, with or without SIRT6-Myc; anti-HA immunoprecipitation, blot with anti-Myc; bands quantified
HA-tagged p300 (p300-HA) [5] = biological target: HA-tagged p300 (p300-HA) (UniProt Q09472); assay: as above

| Molecule | binding [1] | binding (STING-Myc) | binding (HA-tagged CBP (CBP-HA) [2]) | binding (HA-tagged p300 (p300-HA) [3]) | binding (HA-tagged CBP (CBP-HA) [4]) | binding (HA-tagged p300 (p300-HA) [5]) |
| --- | --- | --- | --- | --- | --- | --- |
| vIRF1 with Lys406 mutated to arginine, Flag-tagged (vIRF1-K406R-Flag) (from UniProt F5HF68 1-449) | no binding | no binding |  |  |  |  |
| vIRF1 with Lys442 mutated to arginine, Flag-tagged (vIRF1-K442R-Flag) (from UniProt F5HF68 1-449) | no binding | no binding |  |  |  |  |
| Myc-tagged IRF3 (IRF3-Myc) (protein, UniProt Q14653 1-427) MGTPKPRILPWLVSQLDLGQLEGVAWVNKSRTRFRIPWKHGLRQDAQQEDFGIFQAWAEATGAYVPGRDKPDLPTWKRNFRSALNRKEGLRLAEDRSKDPHDPHKIYEFVNSGVGDFSQPDTSPDTNGGGSTSDTQEDILDELLGNMVLAPLPDPGPPSLAVAPEPCPQPLRSPSLDNPTPFPNLGPSENPLKRLLVPGEEWEFEVTAFYRGRQVFQQTISCPEGLRLVGSEVGDRTLPGWPVTLPDPGMSLTDRGVMSYVRHVLSCLGGGLALWRAGQWLWAQRLGHCHTYWAVSEELLPNSGHGPDGEVPKDKEGGVFDLGPFIVDLITFTEGSGRSPRYALWFCVGESWPQDQPWTKRLVMVKVVPTCLRALVEMARVGGASSLENTVDLHISNSHPLSLTSDQYKAYLQDLVEGMDFQGPGES |  |  | binds | binds | binds | binds |
